Results on 23 compounds are retold here after PubChem BioAssay AID256 (DTP/NCI, 2004).

The list shows only some results of the screen, not a fair sample: it gathers tests that were run many times, whatever their T/C, doses with no T/C, and many T/C values between a quarter and a half above the control. Other doses and runs of a compound stand elsewhere. T/C is the treated group as % of the vehicle group. Some entries give survivors of the animals treated and no T/C: the source files T/C as zero there, which appears to mark a toxic dose or a test without result, not a measured value. Some doses without a T/C left all or most animals alive at the check, yet need not have been tolerated: the source hardly ever lists a survival T/C far under the control, and the zero likely stands for such cases as well. Counts of survivors are from the toxicity check (mostly the fifth day) where no day follows; animals may have died later. Schedules are NCI's codes, read here as Q, the interval in days (D) or hours (H), X, the number of doses. Marks such as (2×) say how often a value occurs here. Some doses were run more than once; the values are given in rising order. Where survival is the endpoint, the PubChem record calls one and a half times the control and up active, and a quarter to a half above the control has no call in these data; cut-offs in other NCI protocols can differ. Some T/C values are followed by the survivors on the day toxicity was checked, most often the fifth; without a count, all were alive then.

The test system of the experiment is CD2F1 mice, L1210 leukemia ip, survival T/C. The experiment in a line: NCI In Vivo Anticancer Drug Screen. Data for tumor model L1210 Leukemia (intraperitoneal) in CD2F1 (CDF1) mice. The note with it: higher T/C = longer survival. The procedure, abridged:
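Vehicle-treated tumor-bearing mice served as controls (C) for compound-treated mice (T). Reported figure is T divided by C.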

Where [1] appears, read: T/C endpoint: mean survival time, dose: 200.0 mg/kg/injection, schedule: Q04DX003 (ip), vehicle: saline with Tween-80.
The mark [2] stands for this setting: T/C endpoint: mean survival time, dose: 400.0 mg/kg/injection, schedule: Q01DX001 (ip), vehicle: saline.
The mark [3] stands for this setting: T/C endpoint: mean survival time, dose: 200.0 mg/kg/injection, schedule: Q01DX009 (ip), vehicle: saline with Tween-80.
Setting [4] is: T/C endpoint: mean survival time, dose: 400.0 mg/kg/injection, schedule: Q01DX009 (ip), vehicle: saline with Tween-80.

For `COc1cccc2c1C(=O)c1c(O)c3c(c(O)c1C2=O)CC(O)(/C(C)=N/NC(=O)CCCC(=O)N/N=C(\C)C1(O)Cc2c(O)c4c(c(O)c2C(OC2CC(N)C(O)C(C)O2)C1)C(=O)c1c(OC)cccc1C4=O)CC3OC1CC(N)C(O)C(C)O1` (stereo not drawn), for the setting “T/C endpoint: mean survival time, dose: 6.25 mg/kg/injection, schedule: Q01DX009 (ip), vehicle: water”, the survivor count was 0 of 6.

Consider `Cn1cccc1-c1cccnc1`, for which the survivor count (T/C endpoint: mean survival time, dose: 300.0 mg/kg/injection, schedule: Q01DX001 (ip), vehicle: saline) is given as 1 of 6.

On to `COC12C(COC(N)=O)C3=C(C(=O)C(C)=C(N4CCN(C)CC4)C3=O)N1CC1NC12` (stereo not drawn), for which the T/C (T/C endpoint: median survival time, dose: 0.75 mg/kg/injection, schedule: Q01DX001 (ip), vehicle: water) was 135 % of control. The survivor count (T/C endpoint: median survival time, dose: 12.0 mg/kg/injection, schedule: Q01DX001 (ip), vehicle: water) is 1 of 6.

As to `CCOC(=O)C[P+](c1ccccc1)(c1ccccc1)c1ccccc1`, the survivor count runs as follows: (T/C endpoint: mean survival time, dose: 25.0 mg/kg/injection, schedule: Q04DX003 (ip), vehicle: saline with Tween-80) 6 of 6; (T/C endpoint: mean survival time, dose: 50.0 mg/kg/injection, schedule: Q04DX003 (ip), vehicle: saline with Tween-80) 3 of 6; (T/C endpoint: mean survival time, dose: 100.0 mg/kg/injection, schedule: Q04DX003 (ip), vehicle: saline with Tween-80) 0 of 6; under setting [1], 0 of 6.

Turning to `CCCCCCCCCCCCCCCCCC(=O)OCC(=O)OCC(=O)[C@]1(O)Cc2c(O)c3c(c(O)c2[C@@H](OC2CC(N)C(O)C(C)O2)C1)C(=O)c1c(OC)cccc1C3=O` (stereo partly drawn), the T/C is, setting by setting: (T/C endpoint: mean survival time, dose: 0.39 mg/kg/injection, schedule: Q01DX005 (ip), vehicle: other) 131 % of control; (T/C endpoint: mean survival time, dose: 0.78 mg/kg/injection, schedule: Q01DX005 (ip), vehicle: other) 131 % of control; (T/C endpoint: mean survival time, dose: 1.56 mg/kg/injection, schedule: Q01DX005 (ip), vehicle: other) 129 % of control; (T/C endpoint: mean survival time, dose: 1.56 mg/kg/injection, schedule: Q01DX005 (ip), vehicle: water, evaluated on day 30) 137 % of control; (T/C endpoint: mean survival time, dose: 1.56 mg/kg/injection, schedule: Q01DX005 (ip), vehicle: water, evaluated on day 45) 129 % of control; (T/C endpoint: mean survival time, dose: 3.0 mg/kg/injection, schedule: Q01DX009 (ip), vehicle: saline) 126 % of control. Besides, the T/C is 141 % of control (T/C endpoint: mean survival time, dose: 3.13 mg/kg/injection, schedule: Q01DX005 (ip), vehicle: water); 145 % of control (T/C endpoint: mean survival time, dose: 6.0 mg/kg/injection, schedule: Q01DX009 (ip), vehicle: saline); 139 % of control (T/C endpoint: mean survival time, dose: 6.25 mg/kg/injection, schedule: Q01DX005 (ip), vehicle: water). The survivor count (T/C endpoint: mean survival time, dose: 12.5 mg/kg/injection, schedule: Q01DX005 (ip), vehicle: water) is 6 of 6 (2×).

For `CCCCCCC/C=N/NC(=O)c1ccc[n+](C)c1`, the survivor count (T/C endpoint: mean survival time, dose: 400.0 mg/kg/injection, schedule: Q01DX001 (ip), vehicle: saline with Tween-80) is given as 0 of 6.

In the case of `O=Cc1cccc2ccc3ccccc3c12`, for the setting “T/C endpoint: median survival time, dose: 400.0 mg/kg/injection, schedule: Q04DX002 (ip), vehicle: saline with Tween-80”, the survivor count was 0 of 3.

Take `ClCc1c2ccccc2c(CCl)c2ccccc12`: the survivor count is 3 of 6 (T/C endpoint: mean survival time, dose: 2.05 mg/kg/injection, schedule: Q01DX009 (ip), vehicle: saline with Tween-80); 3 of 6 (T/C endpoint: mean survival time, dose: 3.12 mg/kg/injection, schedule: Q01DX009 (ip), vehicle: saline with Tween-80); 1 of 6 (T/C endpoint: mean survival time, dose: 4.68 mg/kg/injection, schedule: Q01DX009 (ip), vehicle: saline with Tween-80).

For `O=C1CC(c2ccccc2)CO1` (stereo not drawn), the survivor count under setting [2] is reported as 2 of 4.

As for `Clc1cc(Cl)c2nc[nH]c2c1`, under setting [3], the survivor count is on record as 0 of 3.

Turning to `CCCCCCCC[n+]1ccc(C#N)cc1`, the survivor count (T/C endpoint: mean survival time, dose: 75.0 mg/kg/injection, schedule: Q01DX009 (ip), vehicle: saline) was 0 of 6.

`CC(=O)Nc1ncc2ccccc2c1-c1ccc(N(CCCl)CCCl)cc1`: the T/C (T/C endpoint: mean survival time, dose: 200.0 mg/kg/injection, schedule: Q04DX003 (ip), vehicle: DMSO) is 135 % of control. For the same compound, under “T/C endpoint: mean survival time, dose: 600.0 mg/kg/injection, schedule: Q04DX003 (ip), vehicle: saline + alcohol”, the survivor count is on record as 1 of 6.

Regarding `CC(C)(C)OC(=O)NC(CCC(=O)OCc1ccccc1)C(=O)O` (stereo not drawn) (tested in a mixture with another compound), the survivor count runs as follows: (T/C endpoint: mean survival time, dose: 50.0 mg/kg/injection, schedule: Q01DX009 (ip), vehicle: saline with Tween-80) 6 of 6; under setting [3], 0 of 6; under setting [4], 0 of 6.

In the case of `O=C(Nc1ccc([N+](=O)[O-])cc1Cl)OCCc1ccccn1`, the T/C is 87, 90 (2×), 95 % of control (T/C endpoint: mean survival time, dose: 100.0 mg/kg/injection, schedule: Q01DX009 (ip), vehicle: saline with Tween-80); 88 and 90 % of control [2 of 3 alive] under setting [3]. The survivor count under setting [3] is 3 of 3 and 6 of 6; the survivor count under setting [4] is 3 of 3 and 6 of 6.

On to `NCC(=O)NC1(C(=O)O)CCCC1`, for which the T/C reads like this: (T/C endpoint: mean survival time, dose: 250.0 mg/kg/injection, schedule: Q04DX003 (ip), vehicle: saline) 125 % of control; (T/C endpoint: mean survival time, dose: 500.0 mg/kg/injection, schedule: Q01DX001 (ip), vehicle: saline) 136 % of control.

Turning to `CC(=O)Nc1cc2c(ncn2C2OC(CO)C(O)C2O)c(Br)n1` (stereo not drawn), where the note is “T/C endpoint: mean survival time, dose: 100.0 mg/kg/injection, schedule: Q01DX005 (ip), vehicle: water”, the survivor count is 6 of 6.

`CCN(CC)/C(N)=N\c1nc(C)c2cc(Cl)ccc2n1`: the survivor count is recorded as 0 of 4 (T/C endpoint: mean survival time, dose: 200.0 mg/kg/injection, schedule: Q01DX001 (ip), vehicle: saline) and 0 of 4 under setting [2].

Take `Cc1cc2nc3c(=O)[nH]c(=O)nc-3n(CC(O)C(O)C(O)C(O)CO)c2cc1C` (stereo not drawn): where the note is “T/C endpoint: mean survival time, dose: 800.0 mg/kg/injection, schedule: Q01DX009 (ip), vehicle: suspension in saline”, the survivor count is 3 of 6.

As to `O=C(O)C(O)C(O)C(OC1OC(CO)C(O)C(O)C1O)C(O)CO.O=C(O)C(O)C(O)C(OC1OC(CO)C(O)C(O)C1O)C(O)CO.[NH-]C1CCCCC1[NH-].[Pt+2]` (stereo not drawn), the T/C by setting is: (T/C endpoint: median survival time, dose: 3.12 mg/kg/injection, schedule: Q04DX003 (ip), vehicle: saline) 134 % of control; (T/C endpoint: median survival time, dose: 6.25 mg/kg/injection, schedule: Q04DX003 (ip), vehicle: saline) 135 % of control; (T/C endpoint: median survival time, dose: 12.5 mg/kg/injection, schedule: Q04DX003 (ip), vehicle: saline) 125 % of control [5 of 6 alive]; (T/C endpoint: median survival time, dose: 25.0 mg/kg/injection, schedule: Q04DX003 (ip), vehicle: saline) 146 % of control. Also, where the note is “T/C endpoint: median survival time, dose: 200.0 mg/kg/injection, schedule: Q04DX003 (ip), vehicle: saline”, the survivor count is 5 of 6.

Turning to `Clc1ccc(CC[PH+]2CC=CC2)cc1.Clc1ccc(CC[PH+]2CC=CC2)cc1.[Cl][Ni][Cl]`, the survivor count by setting is: (T/C endpoint: mean survival time, dose: 50.0 mg/kg/injection, schedule: Q01DX009 (ip), vehicle: DMSO) 3 of 3; (T/C endpoint: mean survival time, dose: 100.0 mg/kg/injection, schedule: Q04DX002 (ip), vehicle: saline with Tween-80) 0 of 3.

As to `O=C(CCl)Nc1ccc(Cl)cc1`, the survivor count was 3 of 6 (T/C endpoint: mean survival time, dose: 100.0 mg/kg/injection, schedule: Q01DX009 (ip), vehicle: Klucel (hydroxypropylcellulose) (HPC)); 0 of 6 (T/C endpoint: mean survival time, dose: 200.0 mg/kg/injection, schedule: Q04DX003 (ip), vehicle: Klucel (hydroxypropylcellulose) (HPC)); 1 of 6 under setting [1]; 0 of 6 (T/C endpoint: mean survival time, dose: 400.0 mg/kg/injection, schedule: Q04DX003 (ip), vehicle: saline with Tween-80).

With `CC(=O)OC1(/N=[N+](/C)[O-])CCCC1`, the T/C runs as follows: (T/C endpoint: mean survival time, dose: 50.0 mg/kg/injection, schedule: Q01DX001 (ip), vehicle: saline with Tween-80) 130 % of control; (T/C endpoint: mean survival time, dose: 100.0 mg/kg/injection, schedule: Q01DX001 (ip), vehicle: saline with Tween-80) 148 % of control. Besides, the survivor count reads like this: (T/C endpoint: mean survival time, dose: 200.0 mg/kg/injection, schedule: Q01DX001 (ip), vehicle: saline with Tween-80) 5 of 6; under setting [1], 5 of 6.

Turning to `CC(=O)OCC1OC(n2ccc3c(N)ncnc32)C(O)C1OC(C)=O` (stereo not drawn), the survivor count is 0 of 6 (T/C endpoint: mean survival time, dose: 40.0 mg/kg/injection, schedule: Q01DX001 (ip), vehicle: saline) and 0 of 6 (T/C endpoint: mean survival time, dose: 80.0 mg/kg/injection, schedule: Q01DX001 (ip), vehicle: saline).
